This is one part of the list. No stated cut-off is given here; in the data, active = 150% or more and inactive = the rest. Many values rest on one well or one pass, so single values are uncertain.
The compounds below were run on Staphylococcus aureus JE2-lux inside RAW 264.7 macrophages (assay: intracellular bacterial bioluminescence relative to DMSO vehicle; higher = higher intracellular bacterial metabolic activity). Conditions: 10 µM; treatment time 4 h; gentamicin 50 µg/ml.
Protocol: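 RAW 264.7 macrophages infected with bioluminescent MRSA JE2-lux (MOI 100) were dispensed into 384-well plates with 10 µM compound in the presence of 50 µg/ml gentamicin. After 4 h at 37 °C, bacterial bioluminescence (a proxy for intracellular bacterial metabolic activity) and host cell viability (CellTiter-Fluor) were read and normalised to 0.1% DMSO vehicle controls. Single-pass screen of the UNC CICBDD kinase-targeted library (>4,700 compounds).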

Intracellular bacterial bioluminescence, inactive:
O=C(NCc1ccccc1)N1CCn2cccc2C1c1cccnc1 (stereo not drawn) 93.6%, O=C1Nc2ccccc2Oc2ccc(NS(=O)(=O)Cc3ccc(F)cc3)cc21 106%, CCc1c(C#N)c(SCC(=O)c2cc3ccccc3oc2=O)nc2c1CCC2 100%, Cc1ccc2cc3c(nc2c1)sc1c(SCC(=O)Nc2ccccc2F)ncnc13 112%, Cc1cccc(NC(=O)NC2(C(=O)NCc3ccco3)CCCCC2)c1 128%, O=C(Nc1ncnc2sccc12)c1ccc(C(=O)c2ccccc2)cc1 13.2%, COc1ccc(CCNC(=O)COc2cccc3c2CCN(Cc2cccnc2)C3=O)cc1OC 89.6%, O=C(CCC(=O)N1CCN(C(c2ccccc2)c2ccccc2)CC1)Nc1noc2ccccc12 25.1%, COc1ccc(-c2cc(C(=O)NC3CCCCC3C)n[nH]2)cc1S(=O)(=O)N(C)C (stereo not drawn) 47.7%, CC(=O)Nc1ccc(NC2=NC(=O)/C(=C\c3ccc(C)o3)S2)cc1 7.08%, CCN1CCN(c2ccc(C(=O)OC)cc2NC(=O)c2cccnc2)CC1 143%, COc1cc(NC(=O)N2CCn3cccc3C2c2ccc(F)c(F)c2)cc(OC)c1OC (stereo not drawn) 42.3%, N=c1c(-c2nc3ccccc3s2)cc2c(=O)n3ccccc3nc2n1Cc1ccco1 119%, Cc1cc2cc(CCNC(=O)C34CC5CC(CC(C5)C3)C4)c(=O)[nH]c2cc1C 68.5%, Cc1ccc(CN2C(=O)/C(=C3/C(=O)Nc4ccccc43)SC2=S)cc1 111%, Cc1cc(NC(=O)C(=O)NCC(c2ccc3c(c2)CCCN3C)N2CCCC2)c2ccccc2n1 (stereo not drawn) 142%, COc1ccc(NC(=O)Cn2cc(C(=O)c3ccc(C)c(C)c3)c(=O)c3cc4c(cc32)OCO4)cc1 77.2%, O=C(/C=C1\SC(=O)NC1=O)Nc1ncc(Cc2cccc(C(F)(F)F)c2)s1 111%, CCOC(=O)c1ccc(NC(=O)CCN2C(=O)/C(=C/c3ccccc3OC)SC2=S)cc1 93.7%, CCOC(=O)c1[nH]c2ccccc2c1NC(=O)c1ccc(N2C(=O)CCC2=O)cc1 108%, CCOC(=O)c1c(NC(=O)CCSc2nc3sc(C)c(C)c3c(=O)[nH]2)sc(C)c1C 117%, Cc1cc(NS(=O)(=O)c2ccc3onc(C(=O)N4CCCC4)c3c2)ccc1Br 109%, NS(=O)(=O)c1ccc(O)c(N2C(=O)c3cccc4c(C(=O)c5ccccc5)ccc(c34)C2=O)c1 91.5%, O=C1NCCc2c(OCc3cccc(C(F)(F)F)c3)cccc21 74.3%, Cc1ccc(-c2noc3ncnc(N4CCC(C(=O)NCc5ccc6c(c5)OCO6)CC4)c23)cc1 38.9%, CCS(=O)(=O)c1ccc(C(=O)Nc2nc3c(OC)ccc(C)c3s2)cc1 117%, COc1ccc(NC(=O)N(Cc2cc3cc(C)ccc3n3nnnc23)CC2CCCO2)cc1 (stereo not drawn) 116%, CCSc1ccccc1C(=O)Nc1nc2c(s1)COc1ccccc1-2 100%, Cc1ccc(S(=O)(=O)Nc2ccccc2C(=O)Nc2cccc3c2C(=O)c2ccccc2C3=O)cc1 119%, Cc1cc2nc(C3CCCN3C(=O)c3snnc3C)[nH]c2cc1C (stereo not drawn) 111%, CN1CCN(c2ncnc3scc(-c4ccc(Cl)cc4)c23)CC1 116%, COc1ccc(NC(=O)c2c(N)c(C(=O)c3ccc(OC)cc3)n3ccccc23)cc1 88.2%, CCC(NC(=O)Cn1c(-c2cccs2)cc2cccnc21)c1c(C)nn(CC)c1C (stereo not drawn) 105%, COc1ccc(-c2cc(C(F)(F)F)n3nc(C(=O)N4CCN(c5ccccc5)CC4)nc3n2)cc1 50.7%, O=S(=O)(/N=C/c1c(O)ccc2ccccc12)c1cccs1 85.3%, c1ccc2c(c1)CCN(c1nc3cc4c(cc3s1)OCCO4)C2 88.2%, COC(=O)Cc1c(-c2ccccc2)c2cc(Br)ccc2[nH]c1=O 104%, CCn1c2c(c(=O)[nH]c1=O)C(c1cccs1)C1=C(CC(C)(C)CC1=O)N2 (stereo not drawn) 99%, Clc1ccc(-c2nnc(C(c3ccccc3)N3CCc4ccccc4C3)o2)cc1 (stereo not drawn) 93.2%, Cn1c(=O)[nH]c(=O)c2c1nc(N1CCOCC1)n2CCCSc1nc2ccccc2o1 118%, COCCn1c(SCC(=O)Nc2ccc(C(=O)OC)cc2)nc2cccnc21 72.7%, CCc1nc(-c2csc(S(=O)(=O)Nc3ccc(Cl)cn3)c2)no1 132%, CCc1ccc(Nc2nc(C(=O)O)nc3ccccc23)cc1 117%, CCOc1ccccc1NC(=O)Cn1c(C)c(Cc2ccccc2)c(=O)n2nc(-c3ccccc3)nc12 85.8%, Cc1cc(C)nc(NC(=O)c2ccc3c(c2)nnn3Cc2ccccc2C)n1 71.4%, O=C(NCCCN1CCOCC1)c1cc2n(n1)CCCN(Cc1ccc(F)cc1)C2=O 116%, COC(=O)c1ccc(CSc2nc(-c3ccc(F)cc3)nc3c2c(=O)n(C)c(=O)n3C)o1 86.4%, COc1ccc(C2c3[nH]c4ccccc4c3CCN2C(=O)c2cccnc2)cc1 (stereo not drawn) 120%, CCCC(=O)Nc1nc2c(s1)C(=O)CC(C)(C)C2 115%, O=C(CSCc1ccccc1)Nc1cc(Cl)ccc1Cl 65.3%, COc1cc(C(=O)NC(=S)Nc2cccc3c2C(=O)NC3=O)cc(OC)c1OC 106%, CCc1nc2ccc(NC(=O)c3nc(-c4ccc(F)cc4)oc3C)cc2[nH]1 82.6%, CCOC(=O)c1sc2nc(NC(=O)C3CCCCC3)sc2c1C 104%, O=C(Nc1ccccc1)Nc1cccc(N2CCn3c(nc4cc(Cl)ccc43)C2)c1 23.7%, O=C(CSc1ccc([N+](=O)[O-])cc1[N+](=O)[O-])Nc1cccc(C(F)(F)F)c1 22.7%, COc1cc(Br)cc2c1Oc1nc(-c3ccccc3)nc(SCC(N)=O)c1C2 89.6%, Cc1sc(NC(=O)CN(Cc2ccc(F)cc2)C(=O)c2ccncc2)c(C(N)=O)c1C 94.4%, CC(C(=O)N1CCCc2ccccc21)n1cnc2onc(-c3ccc(Cl)cc3)c2c1=O (stereo not drawn) 116%, CCN1CC2=C(OC(N)=C(C#N)C2c2ccc(F)cc2)/C(=C/c2ccc(F)cc2)C1 (stereo not drawn) 107%, O=C(NCCc1c[nH]c2ccccc12)C(=O)c1cn(CC(=O)N2CCCC2)c2ccccc12 99.2%, Cc1cc(NC(=O)CN2CC(C)CC(C)C2)nc2c1c(=O)oc1ccccc12 (stereo not drawn) 85.2%, CCOC(=O)c1nn(-c2ccc(F)cc2)c(=O)cc1OCC(=O)NCCc1ccc(OC)c(OC)c1 108%, Cc1cc2c(c(=O)n1CCO)C(c1cccc(F)c1)C(C#N)=C(N)O2 (stereo not drawn) 103%, Cn1c(=O)cc2c3c(c(Nc4ccccc4)ccc31)C(=O)c1ccccc1-2 106%, COc1cc(/C=C2\SC(=S)N(c3ccc(O)cc3)C2=O)cc(OC)c1OC 82.7%, Cc1cccc(Cn2c(N(C)Cc3ccccc3)nc3c2c(=O)[nH]c(=O)n3C)c1 79.4%, CCN1CCN(c2nn3c(NC(C)(C)C)c(-c4ccc(Cl)cc4)nc3s2)CC1 86.1%, COc1ccc(S(=O)(=O)Nc2ccc(N3CCCN(c4ncccn4)CC3)cc2C(=O)O)cc1 97.6%, COC(=O)c1c(NC(=O)Nc2c(-c3cccnc3)[nH]c3ccc(F)cc23)sc2c1CCCC2 66.1%, CCCNC(=O)Cn1nc(-c2ccc(C)cc2)c2cnc3ccc(CC)cc3c21 87.9%, COCCNc1c(-c2ccc(OC)c(O)c2)nc2sc3cc(Cl)ccc3n12 90.6%, O=C(c1ncoc1-c1ccc(F)cc1)N1CCC2(CC1)C(=O)NCN2c1ccccc1 107%, O=C(NCc1cccnc1)c1cnn2c(C(F)(F)F)cc(-c3ccccc3)nc12 79.5%, CCOC(=O)c1ccc(Nc2nc(N)c(C(=O)c3cccc(Cl)c3)s2)cc1 89.4%, Clc1cccc2nc3n(c12)CCN(Cc1ccccc1)C3 86.5%, CC1(C)COc2ccc(NC(=O)Cc3cccs3)cc2NC1=O 100%, Cn1c(=O)[nH]c(=O)c2cnc(-c3ccncc3)nc21 124%, O=C(Cc1ccccc1)NN1C(=O)/C(=C/C=C/c2ccccc2)SC1=S 85.4%, Nc1ncnc2c1c1nc3ccccc3nc1n2CCc1ccccc1 147%, CS(=O)(=O)Nc1nc2ccc(NC(=O)c3cccnc3)cc2s1 114%, CS(=O)CCNC(=O)Nc1cccc2ccccc12 (stereo not drawn) 104%, CCc1ccccc1NC(=O)NC1CC2CCCC(C1)N2Cc1ccccc1 (stereo not drawn) 111%, O=C(NC1CCCC1)c1cnc(N2CCCCC2)c2ccccc12 104%, CCC(Sc1nncn1C)C(=O)Nc1nnc(-c2ccc(F)cc2)s1 (stereo not drawn) 108%, CC1CC(C)CN(S(=O)(=O)c2ccc(C(=O)Nc3sccc3C(N)=O)cc2)C1 (stereo not drawn) 89.9%, COc1ccc(OC)c2sc(NNC(=O)c3ccc(S(=O)(=O)N(C)C)cc3)nc12 110%, CCC(=O)Nc1c(C(=O)OC)sc2ccccc12 109%, c1ccc(NCc2nnc3c(Nc4ccccc4)nc4ccccc4n23)cc1 129%

From the supplement of paper PMC12578635
